Test results: article PMC7311471, “The iron–sulphur cluster in human DNA2 is required for all biochemical activities of DNA2”
Tags and fusion partners may be left off the protein sequences shown.

Target: T1, DNA2 C136S-C396S-C402S (human) (UniProt P51530)
T1 sequence (looked up): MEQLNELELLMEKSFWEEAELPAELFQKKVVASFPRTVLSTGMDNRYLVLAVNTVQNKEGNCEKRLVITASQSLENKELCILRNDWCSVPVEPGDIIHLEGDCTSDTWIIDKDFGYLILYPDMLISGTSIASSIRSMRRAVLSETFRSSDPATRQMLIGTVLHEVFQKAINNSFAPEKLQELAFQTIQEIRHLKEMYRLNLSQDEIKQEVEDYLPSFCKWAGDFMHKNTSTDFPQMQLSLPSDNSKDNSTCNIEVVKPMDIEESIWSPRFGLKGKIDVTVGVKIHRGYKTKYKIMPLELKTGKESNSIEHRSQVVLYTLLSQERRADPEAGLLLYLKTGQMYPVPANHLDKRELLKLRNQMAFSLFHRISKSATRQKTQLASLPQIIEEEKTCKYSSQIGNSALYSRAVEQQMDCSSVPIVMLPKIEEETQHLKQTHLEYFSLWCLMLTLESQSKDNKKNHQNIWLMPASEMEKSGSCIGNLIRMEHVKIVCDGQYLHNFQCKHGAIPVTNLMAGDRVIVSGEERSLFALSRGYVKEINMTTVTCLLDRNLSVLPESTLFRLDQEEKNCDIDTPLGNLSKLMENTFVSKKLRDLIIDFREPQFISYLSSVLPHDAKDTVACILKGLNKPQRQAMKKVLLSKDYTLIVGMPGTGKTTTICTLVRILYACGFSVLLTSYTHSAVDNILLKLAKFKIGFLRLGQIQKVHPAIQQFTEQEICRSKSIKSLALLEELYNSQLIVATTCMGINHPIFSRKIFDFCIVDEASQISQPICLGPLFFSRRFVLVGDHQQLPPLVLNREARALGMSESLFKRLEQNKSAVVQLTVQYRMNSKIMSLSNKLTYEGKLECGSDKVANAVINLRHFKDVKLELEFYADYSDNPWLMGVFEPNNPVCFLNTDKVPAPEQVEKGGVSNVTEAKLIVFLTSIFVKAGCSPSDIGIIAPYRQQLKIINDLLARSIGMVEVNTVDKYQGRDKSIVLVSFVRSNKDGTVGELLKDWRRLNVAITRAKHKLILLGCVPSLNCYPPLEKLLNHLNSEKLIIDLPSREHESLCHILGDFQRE
Assay: EMSA
Conditions: 100 nM protein, H2O2; EMSA: 25 mM Tris-HCl pH 8.0, 0.1 mg/ml BSA, 5 mM EDTA, with or without 1 mM DTT, 30 min on ice; 4-5 nM FAM-DNA or 1 nM 32P-DNA; recombinant protein; residues 1-1060; protein details: His6 and FLAG; label: FAM (strand and end not shown); counted as no binding

ATCGATAGTCGGATCCTCTAGACAGCTCCATGTAGCAAGGCACTGGTAGAATTCGGCAGCGT / GACGCTGCCGAATTCTACCAGTGCCTTGCTAGGACATCTTTGCCCACCTGCAGGTTCACCC / TGGGTGAACCTGCAGGTGGGCAAAGATGTCC [5' flap (FAM)]
binding signal: 0 % bound
